Data reported in publication PMC5566832.
No constants are given. Whether binding was seen depends on the method and setting. Binding seen in cells or lysates may run through a third protein. Some entries that bind do so weakly or less than the wild type. Tags and fused reporters may be left off the sequences shown.

Amino acid sequences for entries named in this document (tags omitted). Residues count along the entry.
UniProt Q4U9M9, residues 20-873: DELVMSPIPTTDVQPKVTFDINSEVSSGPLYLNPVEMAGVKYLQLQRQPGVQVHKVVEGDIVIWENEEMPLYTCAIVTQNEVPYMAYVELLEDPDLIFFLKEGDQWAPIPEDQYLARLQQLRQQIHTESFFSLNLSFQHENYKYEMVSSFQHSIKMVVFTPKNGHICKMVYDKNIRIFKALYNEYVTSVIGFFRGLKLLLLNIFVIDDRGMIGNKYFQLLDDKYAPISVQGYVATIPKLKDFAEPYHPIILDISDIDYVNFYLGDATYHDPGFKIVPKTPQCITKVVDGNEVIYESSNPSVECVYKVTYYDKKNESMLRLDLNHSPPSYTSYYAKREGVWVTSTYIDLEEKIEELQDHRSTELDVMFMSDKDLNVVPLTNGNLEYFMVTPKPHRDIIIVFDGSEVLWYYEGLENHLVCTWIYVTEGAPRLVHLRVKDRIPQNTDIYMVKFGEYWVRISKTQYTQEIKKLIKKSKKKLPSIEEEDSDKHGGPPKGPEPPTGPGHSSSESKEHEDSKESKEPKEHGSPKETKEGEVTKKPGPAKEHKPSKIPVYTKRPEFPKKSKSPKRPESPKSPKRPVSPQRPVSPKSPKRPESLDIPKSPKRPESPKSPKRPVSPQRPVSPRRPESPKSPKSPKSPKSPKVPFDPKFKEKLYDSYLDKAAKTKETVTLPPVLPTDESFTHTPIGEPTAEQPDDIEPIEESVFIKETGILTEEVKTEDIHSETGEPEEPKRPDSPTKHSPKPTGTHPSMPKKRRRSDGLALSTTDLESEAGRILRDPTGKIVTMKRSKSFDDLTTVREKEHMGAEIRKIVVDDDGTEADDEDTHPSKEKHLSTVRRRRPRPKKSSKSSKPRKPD

T1: GFP-CLASP1_(1256-1538) (the kinetochore-binding domain of CLASP1) (human) (UniProt Q7Z460)
T1 sequence: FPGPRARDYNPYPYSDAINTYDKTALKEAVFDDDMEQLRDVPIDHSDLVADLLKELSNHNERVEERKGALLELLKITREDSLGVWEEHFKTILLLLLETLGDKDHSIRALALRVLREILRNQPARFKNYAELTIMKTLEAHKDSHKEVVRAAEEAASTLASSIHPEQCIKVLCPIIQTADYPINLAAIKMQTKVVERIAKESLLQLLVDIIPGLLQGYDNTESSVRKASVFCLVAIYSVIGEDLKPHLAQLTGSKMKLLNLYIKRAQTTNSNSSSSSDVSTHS

B1: bovine EB1 (end-binding protein 1), host cell (protein, UniProt Q3ZBD9 1-268)
chain: MAVNVYSTSVTSDNLSRHDMLAWINESLQLNLTKIEQLCSGAAYCQFMDMLFPGSIALKKVKFQAKLEHEYIQNFKILQAGFKRMGVDKIIPVDKLVKGKFQDNFEFVQWFKKFFDANYDGKEYDPVAARQGQETAMAPSLVAPALNKPKKPLSSSSAAPQRPITTHRTTATPKAGPGVVRKNPGVGNGDDEAAELMQQVNVLKLTVEDLEKERDFYFGKLRNIELICQENEGENNPVLQRIVDILYATDEGFVIPDEGGPQEEQEEY

Target: T1, GFP-CLASP1_(1256-1538) (the kinetochore-binding domain of CLASP1) (human)
Assay: co-IP; GFP-TRAP magnetic beads on lysate of TaC12 cells transduced with GFP-CLASP1(1256-1538); lysis buffer with 0.5% NP-40; Western blot; control: nontransduced TaC12

Row | Molecule | binding
1 | T. annulata schizont membrane protein p104 (TA08425), endogenous (from UniProt Q4U9M9 20-873) | binds
2 | B1 | no binding
